This is one part of the list. Residues, ends and D or L forms follow the SMILES beside them. *: point of attachment. Cbz = O=C(OCc1ccccc1)*
Columns and labels:
Experiment in all cases: log2 fold change, soluble protein after heating vs DMSO (PISA); higher = thermal stabilisation; K562 cells, 10 uM, 30 min; active = over 0.2 and 3.5 SD of the protein, either way, in both replicates (recomputed)
erlotinib = compound: C#Cc1cccc(Nc2ncnc3cc(OCCOC)c(OCCOC)cc23)c1 [erlotinib]
Procedure, shortened: (§1)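 Soluble protein was defined as the supernatant after 21,000xg for 90 min. It came from K562 cells at 2×10^6 cells/mL given 10 μM compound for 30 min, heated in aliquots for 3 min across 48°C-58°C, pooled, and extracted in PBS with 0.5% NP-40 at 4°C, and was quantified by TMTpro 16plex LC-MS/MS with equalised channel sums. Thermal stability against control samples, from duplicates, is reported as log2 fold change.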

Sequences of proteins named here, by UniProt entry; tags and fusion partners are left off. A change or cut given only in a name is not applied to a line headed by its entry.
UniProt Q969M1: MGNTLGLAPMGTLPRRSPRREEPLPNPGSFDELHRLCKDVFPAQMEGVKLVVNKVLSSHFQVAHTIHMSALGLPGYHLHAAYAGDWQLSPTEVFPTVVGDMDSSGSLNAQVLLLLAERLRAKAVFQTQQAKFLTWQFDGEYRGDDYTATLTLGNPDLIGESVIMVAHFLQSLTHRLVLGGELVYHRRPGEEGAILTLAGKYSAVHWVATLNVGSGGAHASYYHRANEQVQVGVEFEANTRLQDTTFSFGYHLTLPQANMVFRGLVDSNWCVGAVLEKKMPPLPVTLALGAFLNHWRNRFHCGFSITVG
UniProt P60174, whole entry, looked up: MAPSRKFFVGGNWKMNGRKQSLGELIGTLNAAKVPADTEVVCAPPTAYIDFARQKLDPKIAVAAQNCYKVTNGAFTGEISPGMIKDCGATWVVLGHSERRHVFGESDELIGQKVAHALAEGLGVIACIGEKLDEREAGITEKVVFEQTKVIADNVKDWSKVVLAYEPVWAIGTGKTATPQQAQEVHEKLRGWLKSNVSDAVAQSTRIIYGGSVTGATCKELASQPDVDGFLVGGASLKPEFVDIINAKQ
UniProt O75648: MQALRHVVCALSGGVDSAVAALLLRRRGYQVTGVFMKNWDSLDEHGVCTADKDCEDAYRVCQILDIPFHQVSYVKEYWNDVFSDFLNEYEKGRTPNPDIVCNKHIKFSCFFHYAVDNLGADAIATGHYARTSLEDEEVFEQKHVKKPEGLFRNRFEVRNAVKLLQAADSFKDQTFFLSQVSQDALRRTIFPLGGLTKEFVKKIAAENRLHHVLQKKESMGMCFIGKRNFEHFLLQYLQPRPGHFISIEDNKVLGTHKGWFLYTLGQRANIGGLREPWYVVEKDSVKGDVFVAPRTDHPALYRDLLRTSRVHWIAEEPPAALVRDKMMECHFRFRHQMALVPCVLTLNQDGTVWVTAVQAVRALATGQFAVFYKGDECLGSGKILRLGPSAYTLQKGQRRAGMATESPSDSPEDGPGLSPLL
UniProt O14656: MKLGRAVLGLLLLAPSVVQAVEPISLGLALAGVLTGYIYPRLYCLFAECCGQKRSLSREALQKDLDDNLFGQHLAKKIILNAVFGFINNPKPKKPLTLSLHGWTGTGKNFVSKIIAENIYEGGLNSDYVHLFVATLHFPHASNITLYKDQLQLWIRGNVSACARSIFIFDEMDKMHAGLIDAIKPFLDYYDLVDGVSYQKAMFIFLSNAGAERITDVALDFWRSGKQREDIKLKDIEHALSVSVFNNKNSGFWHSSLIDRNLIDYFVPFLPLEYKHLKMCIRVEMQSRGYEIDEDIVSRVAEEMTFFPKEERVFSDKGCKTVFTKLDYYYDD
UniProt Q9NXH9: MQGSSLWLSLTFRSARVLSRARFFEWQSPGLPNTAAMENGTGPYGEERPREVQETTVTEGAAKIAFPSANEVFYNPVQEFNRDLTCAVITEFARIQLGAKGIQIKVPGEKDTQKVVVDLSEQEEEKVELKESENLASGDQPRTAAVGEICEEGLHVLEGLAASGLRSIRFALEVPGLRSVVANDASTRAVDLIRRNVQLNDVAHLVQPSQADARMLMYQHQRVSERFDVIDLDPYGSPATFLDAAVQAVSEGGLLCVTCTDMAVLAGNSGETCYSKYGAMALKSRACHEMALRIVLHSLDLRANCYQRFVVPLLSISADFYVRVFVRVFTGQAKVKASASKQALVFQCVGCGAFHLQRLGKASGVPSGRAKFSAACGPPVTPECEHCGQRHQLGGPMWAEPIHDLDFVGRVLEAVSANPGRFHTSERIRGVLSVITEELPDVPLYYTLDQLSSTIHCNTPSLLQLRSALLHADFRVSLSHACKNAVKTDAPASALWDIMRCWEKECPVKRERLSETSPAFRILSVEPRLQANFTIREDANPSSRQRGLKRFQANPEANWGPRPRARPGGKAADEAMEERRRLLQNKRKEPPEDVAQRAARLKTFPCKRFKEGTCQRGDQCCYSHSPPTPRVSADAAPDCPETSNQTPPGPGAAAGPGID
UniProt Q7Z4G4: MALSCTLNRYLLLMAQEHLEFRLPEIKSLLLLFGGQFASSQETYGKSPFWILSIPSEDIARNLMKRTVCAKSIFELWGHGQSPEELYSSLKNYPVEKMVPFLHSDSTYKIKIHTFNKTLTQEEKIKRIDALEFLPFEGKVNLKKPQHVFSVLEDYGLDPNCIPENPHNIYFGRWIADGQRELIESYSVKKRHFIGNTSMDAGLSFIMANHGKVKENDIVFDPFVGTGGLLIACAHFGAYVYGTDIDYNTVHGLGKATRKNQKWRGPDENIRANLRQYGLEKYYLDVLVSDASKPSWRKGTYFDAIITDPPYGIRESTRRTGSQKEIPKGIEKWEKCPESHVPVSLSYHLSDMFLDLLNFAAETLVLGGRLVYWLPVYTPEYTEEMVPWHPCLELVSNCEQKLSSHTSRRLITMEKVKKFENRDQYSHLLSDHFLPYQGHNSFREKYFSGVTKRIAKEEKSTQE
UniProt Q96F44: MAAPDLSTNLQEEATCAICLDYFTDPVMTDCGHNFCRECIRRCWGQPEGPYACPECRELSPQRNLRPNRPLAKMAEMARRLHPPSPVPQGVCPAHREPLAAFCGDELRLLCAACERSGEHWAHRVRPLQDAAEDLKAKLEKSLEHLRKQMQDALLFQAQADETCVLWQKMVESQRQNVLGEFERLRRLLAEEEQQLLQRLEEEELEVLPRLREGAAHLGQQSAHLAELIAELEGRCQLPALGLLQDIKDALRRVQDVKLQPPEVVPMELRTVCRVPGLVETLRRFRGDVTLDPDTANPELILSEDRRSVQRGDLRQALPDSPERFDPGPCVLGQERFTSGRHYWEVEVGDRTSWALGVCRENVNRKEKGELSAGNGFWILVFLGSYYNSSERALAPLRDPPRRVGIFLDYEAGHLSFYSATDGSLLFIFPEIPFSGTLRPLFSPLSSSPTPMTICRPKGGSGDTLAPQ
UniProt Q15654: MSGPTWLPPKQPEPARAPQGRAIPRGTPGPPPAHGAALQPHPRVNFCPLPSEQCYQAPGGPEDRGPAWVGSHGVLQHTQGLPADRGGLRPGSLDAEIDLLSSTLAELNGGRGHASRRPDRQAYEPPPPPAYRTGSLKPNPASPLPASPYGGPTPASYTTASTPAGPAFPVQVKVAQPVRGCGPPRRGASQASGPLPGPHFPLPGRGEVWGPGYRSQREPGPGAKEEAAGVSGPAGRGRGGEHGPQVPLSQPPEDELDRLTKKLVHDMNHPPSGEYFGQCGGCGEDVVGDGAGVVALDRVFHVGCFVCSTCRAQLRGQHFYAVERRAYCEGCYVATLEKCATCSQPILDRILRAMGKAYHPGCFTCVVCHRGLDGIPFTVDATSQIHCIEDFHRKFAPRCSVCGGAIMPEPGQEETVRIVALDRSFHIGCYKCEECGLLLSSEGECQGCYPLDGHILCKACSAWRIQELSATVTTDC
UniProt Q9BUZ4: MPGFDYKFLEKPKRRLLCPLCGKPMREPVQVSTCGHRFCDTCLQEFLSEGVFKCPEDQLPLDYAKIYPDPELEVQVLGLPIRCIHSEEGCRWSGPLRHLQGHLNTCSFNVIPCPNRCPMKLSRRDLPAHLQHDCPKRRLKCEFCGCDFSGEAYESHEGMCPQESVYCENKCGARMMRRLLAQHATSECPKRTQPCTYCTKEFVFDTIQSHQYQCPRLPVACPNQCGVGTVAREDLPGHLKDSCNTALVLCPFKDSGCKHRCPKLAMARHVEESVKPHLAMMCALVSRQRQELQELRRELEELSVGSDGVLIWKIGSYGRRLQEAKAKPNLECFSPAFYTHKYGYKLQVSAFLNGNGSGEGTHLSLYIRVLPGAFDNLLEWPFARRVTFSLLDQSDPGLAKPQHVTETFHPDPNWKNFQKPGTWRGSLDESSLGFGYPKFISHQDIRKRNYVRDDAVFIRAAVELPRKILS
UniProt O60704: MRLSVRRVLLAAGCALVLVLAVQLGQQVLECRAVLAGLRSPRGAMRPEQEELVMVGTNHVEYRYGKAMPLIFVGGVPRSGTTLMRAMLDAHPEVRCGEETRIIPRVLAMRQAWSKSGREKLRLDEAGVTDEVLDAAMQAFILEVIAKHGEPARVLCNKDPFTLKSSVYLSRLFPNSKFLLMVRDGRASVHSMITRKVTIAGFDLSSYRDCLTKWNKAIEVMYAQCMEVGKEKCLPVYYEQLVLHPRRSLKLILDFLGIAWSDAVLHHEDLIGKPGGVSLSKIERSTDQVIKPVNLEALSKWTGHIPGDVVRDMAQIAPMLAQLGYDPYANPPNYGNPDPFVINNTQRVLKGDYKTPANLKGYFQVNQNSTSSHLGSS
UniProt Q9UJA5: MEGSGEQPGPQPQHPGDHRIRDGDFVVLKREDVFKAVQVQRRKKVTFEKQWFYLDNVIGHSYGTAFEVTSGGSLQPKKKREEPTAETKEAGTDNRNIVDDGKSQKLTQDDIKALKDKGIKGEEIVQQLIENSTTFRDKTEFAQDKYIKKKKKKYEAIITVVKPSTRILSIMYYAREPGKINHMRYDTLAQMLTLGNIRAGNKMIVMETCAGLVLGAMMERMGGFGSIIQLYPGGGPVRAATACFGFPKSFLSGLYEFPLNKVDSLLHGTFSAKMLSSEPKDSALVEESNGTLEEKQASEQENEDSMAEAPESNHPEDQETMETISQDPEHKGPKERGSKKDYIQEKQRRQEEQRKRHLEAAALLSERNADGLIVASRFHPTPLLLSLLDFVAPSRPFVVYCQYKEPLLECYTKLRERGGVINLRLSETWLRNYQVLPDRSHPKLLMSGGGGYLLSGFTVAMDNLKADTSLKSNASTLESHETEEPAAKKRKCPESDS
UniProt Q16890: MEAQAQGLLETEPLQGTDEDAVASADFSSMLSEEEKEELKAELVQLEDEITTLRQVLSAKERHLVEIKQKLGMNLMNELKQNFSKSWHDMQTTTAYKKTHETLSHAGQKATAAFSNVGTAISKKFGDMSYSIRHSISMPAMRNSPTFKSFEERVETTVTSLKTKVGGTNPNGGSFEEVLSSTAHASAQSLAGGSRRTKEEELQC
UniProt Q7Z2T5: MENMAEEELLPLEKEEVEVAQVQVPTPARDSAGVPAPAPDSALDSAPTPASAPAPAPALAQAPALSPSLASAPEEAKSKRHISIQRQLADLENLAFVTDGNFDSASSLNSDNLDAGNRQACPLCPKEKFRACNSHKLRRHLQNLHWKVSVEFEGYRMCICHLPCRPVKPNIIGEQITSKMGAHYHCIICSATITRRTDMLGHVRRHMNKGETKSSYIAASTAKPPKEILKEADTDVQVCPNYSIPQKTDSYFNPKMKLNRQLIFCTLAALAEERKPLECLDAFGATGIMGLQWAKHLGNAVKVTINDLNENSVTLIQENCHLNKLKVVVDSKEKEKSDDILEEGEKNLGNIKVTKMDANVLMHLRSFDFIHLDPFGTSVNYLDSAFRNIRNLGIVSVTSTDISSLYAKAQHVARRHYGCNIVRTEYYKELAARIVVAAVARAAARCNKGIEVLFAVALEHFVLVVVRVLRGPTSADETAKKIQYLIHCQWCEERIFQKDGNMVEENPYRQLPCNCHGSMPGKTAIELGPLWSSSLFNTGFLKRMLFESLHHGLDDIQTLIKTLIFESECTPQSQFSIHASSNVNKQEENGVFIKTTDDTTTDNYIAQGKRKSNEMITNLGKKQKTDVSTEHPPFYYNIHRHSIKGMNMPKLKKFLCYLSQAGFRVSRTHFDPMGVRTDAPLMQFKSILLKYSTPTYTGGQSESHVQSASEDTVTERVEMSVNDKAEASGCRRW
UniProt P51580: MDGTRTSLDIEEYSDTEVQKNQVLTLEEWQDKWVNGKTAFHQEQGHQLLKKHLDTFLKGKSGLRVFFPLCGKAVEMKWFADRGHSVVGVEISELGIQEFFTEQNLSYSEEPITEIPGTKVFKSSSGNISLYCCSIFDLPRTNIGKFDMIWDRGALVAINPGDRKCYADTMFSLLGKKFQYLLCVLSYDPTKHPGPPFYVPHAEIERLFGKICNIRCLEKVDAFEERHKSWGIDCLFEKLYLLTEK

[1] = compound: C/C(=N\NC(=O)C1=CC(=CC=C1)S(=O)(=O)N2CCOCC2)/C3=C(C=CC(=C3)Cl)O
Procedure, shortened: as §1

[2] = compound: C1=CC(=C(C=C1Cl)C2=NC3=NC=CN=C3C(=N2)NC4=CC=NC=C4)F
Procedure, shortened: as §1

[3] = compound: C1=CC(=CC=C1C2=NC3=C(N2)C=C(C=C3)C(=O)N)OC4=CC=C(C=C4)Cl
Procedure, shortened: as §1

[4] = compound: C1=CC2=C(C=CC(=C2)/C=C\3/C(=O)NC(=NCC4=CC=CS4)S3)N=C1
Procedure, shortened: as §1

[5] = compound: C1=CC2=NC=CN=C2C=C1/C=C/3\C(=O)NC(=O)S3
Procedure, shortened: as §1

[6] = compound: C1=CC=C(C=C1)C2=NC(=C(N2)C3=CC=NC=C3)C4=CC(=C(C=C4)Cl)O
Procedure, shortened: as §1

[7] = compound: C1=CC=C2C(=C1)C3=NNC4=CC=CC(=C43)C2=O
Procedure, shortened: as §1

[8] = compound: C1CCN(C1)C(=O)NC2=CC=CC(=C2)NC3=NC=C(C(=N3)NCCC4=CN=CN4)Br
Procedure, shortened: as §1

[9] = compound: C1CN(CCC1(CC2=CC=C(C=C2)Cl)N)C3=NC=NC4=C3C=CN4
Procedure, shortened: as §1

IRAK-1-4 Inhibitor I = compound: C1COCCN1CCN2C3=CC=CC=C3N=C2NC(=O)C4=CC(=CC=C4)[N+](=O)[O-] [IRAK-1-4 Inhibitor I]
Procedure, shortened: as §1

ibrutinib = compound: C=CC(=O)N1CCC[C@@H](n2nc(-c3ccc(Oc4ccccc4)cc3)c3c(N)ncnc32)C1 [ibrutinib]
Procedure, shortened: as §1

[10] = compound: CC(=O)c1cnc2ccc(-c3cc(Cl)c(O)c(Cl)c3)nc2c1N[C@H]1CC[C@H](CN(C)C)CC1
Procedure, shortened: as §1

ralimetinib = compound: CC(C)(C)Cn1c(N)nc2ccc(-c3[nH]c(C(C)(C)C)nc3-c3ccc(F)cc3)nc21 [ralimetinib]
Procedure, shortened: as §1

[11] = compound: CC(C)(O)CC(=O)NCCn1ccc2ncnc(Nc3ccc(Oc4cccc(C(F)(F)F)c4)c(Cl)c3)c21
Procedure, shortened: as §1

[12] = compound: CC(C)C1=C2N=C(C=C(N2N=C1)NCC3=CC=CC=C3)NCCCCCCN
Procedure, shortened: as §1

[13] = compound: CC(C)C[C@@H](C=O)NC(=O)[C@H](CC(C)C)NC(=O)[C@H](CC(C)C)NC(=O)OCc1ccccc1
Procedure, shortened: as §1

pinometostat = compound: CC(C)N(C[C@H]1O[C@@H](n2cnc3c(N)ncnc32)[C@H](O)[C@@H]1O)[C@H]1C[C@@H](CCc2nc3cc(C(C)(C)C)ccc3[nH]2)C1 [pinometostat]
Procedure, shortened: as §1

[14] = compound: CC1=C(C(CC(=O)N1)C2=CC=C(C=C2)C(F)(F)F)C(=O)NC3=C(C=C4C(=C3)C=NN4)F
Procedure, shortened: as §1

[15] = compound: CC1=C(C2=C(C=C1)C(=O)C3=CC=CC=C3N2CCCN)C
Procedure, shortened: as §1

Measured: log2 fold change

TOMM40L (UniProt Q969M1)
inactive: erlotinib 0.072 | [1] 0.044 | [2] 0.001 | [3] 0.022 | [4] -0.045 | [5] 0.068 | [6] 0.004 | [7] 0.058 | [8] 0.019 | [9] -0.01 | IRAK-1-4 Inhibitor I 0.042 | ibrutinib 0.035 | [10] -0.014 | ralimetinib -0.001 | [11] -0.137 | [12] 0.045 | [13] -0.025 | pinometostat -0.025 | [14] 0.026 | [15] 0.016

TPP2 (UniProt Q5VZU9)
inactive: erlotinib -0.143 | [1] 0.014 | [2] -0.096 | [3] -0.248 | [4] 0.209 | [5] -0.256 | [6] 0.093 | [7] -0.079 | [8] -0.353 | [9] 0.076 | IRAK-1-4 Inhibitor I 0.009 | ibrutinib 0.023 | [10] -0.111 | ralimetinib 0.155 | [11] 0.038 | [12] 0.16 | [13] 0.077 | pinometostat 0.158 | [14] 0.118 | [15] 0.338

TPI1 (UniProt P60174)
inactive: erlotinib -0.032 | [1] -0.018 | [2] 0.058 | [3] 0.032 | [4] 0.027 | [5] 0.002 | [6] -0.02 | [7] 0.004 | [8] 0.022 | [9] 0.039 | IRAK-1-4 Inhibitor I 0.046 | ibrutinib 0.025 | [10] 0.005 | ralimetinib -0.068 | [11] 0.033 | [12] 0.049 | [13] 0.039 | pinometostat -0.08 | [14] 0.039 | [15] 0.004

TRMU (UniProt O75648)
inactive: erlotinib 0.012 | [1] 0.036 | [2] 0.041 | [3] -0.021 | [4] 0.01 | [5] 0.037 | [6] 0.01 | [7] -0.036 | [8] -0.003 | [9] 0.04 | IRAK-1-4 Inhibitor I 0.023 | ibrutinib 0.004 | [10] -0.014 | ralimetinib -0.061 | [11] -0.037 | [12] -0.015 | [13] 0.074 | pinometostat -0.031 | [14] 0.013 | [15] -0.053

Quoted from the entries so far (3 entries):
TOMM40L (UniProt Q969M1)
inactive: erlotinib 0.072 | [1] 0.044 | [2] 0.001 | [3] 0.022 | [4] -0.045 | [5] 0.068 | [6] 0.004 | [7] 0.058 | [8] 0.019 | [9] -0.01 | IRAK-1-4 Inhibitor I 0.042 | ibrutinib 0.035 | [10] -0.014 | ralimetinib -0.001 | [11] -0.137 | [12] 0.045 | [13] -0.025 | pinometostat -0.025 | [14] 0.026 | [15] 0.016

TPP2 (UniProt Q5VZU9)
inactive: erlotinib -0.143 | [1] 0.014 | [2] -0.096 | [3] -0.248 | [4] 0.209 | [5] -0.256 | [6] 0.093 | [7] -0.079 | [8] -0.353 | [9] 0.076 | IRAK-1-4 Inhibitor I 0.009 | ibrutinib 0.023 | [10] -0.111 | ralimetinib 0.155 | [11] 0.038 | [12] 0.16 | [13] 0.077 | pinometostat 0.158 | [14] 0.118 | [15] 0.338

TPI1 (UniProt P60174)
inactive: erlotinib -0.032 | [1] -0.018 | [2] 0.058 | [3] 0.032 | [4] 0.027 | [5] 0.002 | [6] -0.02 | [7] 0.004 | [8] 0.022 | [9] 0.039 | IRAK-1-4 Inhibitor I 0.046 | ibrutinib 0.025 | [10] 0.005 | ralimetinib -0.068 | [11] 0.033 | [12] 0.049 | [13] 0.039 | pinometostat -0.08 | [14] 0.039 | [15] 0.004

(cont.)

TOR1A (UniProt O14656)
inactive: erlotinib 0.018 | [1] 0 | [2] 0.012 | [3] 0.005 | [4] 0.053 | [5] 0.029 | [6] -0.019 | [7] 0.013 | [8] 0.006 | [9] 0.02 | IRAK-1-4 Inhibitor I 0.027 | ibrutinib 0.022 | [10] -0.02 | ralimetinib -0.005 | [11] -0.019 | [12] 0.011 | [13] -0.017 | pinometostat 0.001 | [14] 0.011 | [15] -0.003

TRMT1 (UniProt Q9NXH9)
inactive: erlotinib 0.014 | [1] 0.018 | [2] 0.022 | [3] 0.025 | [4] -0.016 | [5] 0.029 | [6] -0.041 | [7] 0 | [8] -0.005 | [9] 0.037 | IRAK-1-4 Inhibitor I 0.001 | ibrutinib -0.007 | [10] 0.014 | ralimetinib -0.082 | [11] 0.006 | [12] 0.065 | [13] -0.017 | pinometostat -0.041 | [14] 0.009 | [15] 0.043

TRMT11 (UniProt Q7Z4G4)
inactive: erlotinib -0.028 | [1] 0.07 | [2] 0.024 | [3] 0.051 | [4] 0.013 | [5] 0.025 | [6] 0.019 | [7] 0.019 | [8] -0.033 | [9] 0.01 | IRAK-1-4 Inhibitor I 0.011 | ibrutinib 0.056 | [10] -0.048 | ralimetinib -0.032 | [11] -0.042 | [12] 0.041 | [13] 0.013 | pinometostat -0.084 | [14] -0.041 | [15] 0.016

TRIM11 (UniProt Q96F44)
inactive: erlotinib 0.023 | [1] 0.045 | [2] 0.055 | [3] -0.058 | [4] 0.052 | [5] 0.073 | [6] 0.01 | [7] -0.043 | [8] 0.003 | [9] -0.029 | IRAK-1-4 Inhibitor I -0.037 | ibrutinib -0.029 | [10] -0.074 | ralimetinib 0.016 | [11] -0.021 | [12] -0.079 | [13] -0.002 | pinometostat -0.042 | [14] 0.078 | [15] -0.061

TPM1 (UniProt H7BYY1)
inactive: erlotinib -0.015 | [1] 0.148 | [2] 0.028 | [3] 0.015 | [4] 0.054 | [5] 0.033 | [6] -0.048 | [7] -0.023 | [8] 0.032 | [9] 0.048 | IRAK-1-4 Inhibitor I 0.087 | ibrutinib 0.021 | [10] 0.012 | ralimetinib -0.043 | [11] -0.004 | [12] 0.041 | [13] -0.023 | pinometostat -0.061 | [14] -0.004 | [15] 0.025

TRIP6 (UniProt Q15654)
inactive: erlotinib 0.002 | [1] 0.003 | [2] 0.044 | [3] -0.01 | [4] -0.025 | [5] 0.006 | [6] 0.028 | [7] -0.025 | [8] -0.034 | [9] 0.05 | IRAK-1-4 Inhibitor I 0.035 | ibrutinib 0.005 | [10] 0.018 | ralimetinib 0.019 | [11] -0.032 | [12] -0.001 | [13] -0.011 | pinometostat -0.039 | [14] 0.048 | [15] 0.003

TRAF4 (UniProt Q9BUZ4)
inactive: erlotinib 0.048 | [1] 0.096 | [2] -0.08 | [3] -0.016 | [4] -0.03 | [5] 0.021 | [6] -0.032 | [7] -0.052 | [8] 0.022 | [9] -0.017 | IRAK-1-4 Inhibitor I -0.054 | ibrutinib 0.05 | [10] -0.028 | ralimetinib 0.028 | [11] 0.143 | [12] 0.008 | [13] 0.075 | pinometostat -0.088 | [14] -0.049 | [15] -0.085

TPST2 (UniProt O60704)
inactive: erlotinib 0 | [1] -0.025 | [2] 0.016 | [3] 0.005 | [4] 0.021 | [5] -0.032 | [6] 0.004 | [7] 0.049 | [8] -0.02 | [9] 0.049 | IRAK-1-4 Inhibitor I -0.091 | ibrutinib -0.016 | [10] -0.027 | ralimetinib 0.013 | [11] -0.065 | [12] 0 | [13] 0.001 | pinometostat 0.005 | [14] -0.012 | [15] 0.021

TRMT6 (UniProt Q9UJA5)
inactive: erlotinib 0.024 | [1] -0.134 | [2] -0.145 | [3] 0.084 | [4] 0.139 | [5] 0.035 | [6] -0.053 | [7] -0.079 | [8] 0.12 | [9] 0.018 | IRAK-1-4 Inhibitor I -0.047 | ibrutinib 0.025 | [10] -0.039 | ralimetinib 0.023 | [11] 0.022 | [12] -0.031 | [13] 0.144 | pinometostat 0.176 | [14] 0.089 | [15] -0.284

TPD52L1 (UniProt Q16890)
inactive: erlotinib 0.009 | [1] 0.033 | [2] 0.034 | [3] 0.033 | [4] 0.059 | [5] 0.019 | [6] 0.002 | [7] 0.001 | [8] -0.071 | [9] 0.001 | IRAK-1-4 Inhibitor I 0.034 | ibrutinib 0.04 | [10] 0 | ralimetinib 0.048 | [11] 0.007 | [12] 0.056 | [13] -0.053 | pinometostat 0.025 | [14] 0.003 | [15] 0.102

TRMT1L (UniProt Q7Z2T5)
inactive: erlotinib -0.146 | [1] -0.255 | [2] -0.628 | [3] 0.018 | [4] -0.128 | [5] 0.005 | [6] -0.01 | [7] -0.028 | [8] 0.105 | [9] -0.104 | IRAK-1-4 Inhibitor I -0.116 | ibrutinib 0.009 | [10] 0.229 | ralimetinib 0.202 | [11] 0 | [12] 0.057 | [13] 0.175 | pinometostat 0.403 | [14] -0.02 | [15] -0.269

TPMT (UniProt P51580)
inactive: erlotinib -0.019 | [1] 0.041 | [2] 0.055 | [3] -0.011 | [4] 0.012 | [5] 0.038 | [6] -0.015 | [7] -0.011 | [8] -0.005 | [9] -0.008 | IRAK-1-4 Inhibitor I 0.023 | ibrutinib -0.034 | [10] -0.014 | ralimetinib -0.044 | [11] 0.025 | [12] 0.017 | [13] -0.014 | pinometostat -0.032 | [14] -0.024 | [15] 0.005
